## Results from one PubChem assay

The results are deposited in PubChem (AID1053133; Broad Institute, 2014).

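Plate-reader measure of the Venus reporter marking one vaccinia stage in infected cells (the cell line is not named here); read time unknown. The test concentration is not given here. Percent change in Venus reporter signal; lower (more negative) values mean stronger inhibition of that viral stage.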

Values are in %. How 0% and 100% were set is not given here. Common to all entries: measured here: Venus reporter, other viral stage. This is a side read-out of the assay, for part of the compounds, not drawn at random.

structure | activity change (Venus) (%)
COc1ccc(S(=O)(=O)N(C)C[C@@H]2Oc3ccc(NC(=O)Nc4ccc(C(F)(F)F)cc4)cc3C(=O)N([C@H](C)CO)C[C@@H]2C)cc1 | -25.01
CN(C)C(=O)c1cccc(-c2ccc(C3[C@@H]4CN(S(=O)(=O)c5ccc(F)cc5)C[C@H]3N4)cc2)c1 (some centres undefined) | -53.87
Cc1cccc(-c2ccc(C3[C@@H]4CN(C(=O)Nc5ccc(F)cc5)C[C@H]3N4)cc2)c1 (some centres undefined) | -52.95
CC(C)CC#Cc1ccc([C@@H]2[C@H]3CN(C(=O)NC4CCCC4)CCCCN3[C@H]2CO)cc1 | -48.89
COc1cccc(S(=O)(=O)N2CCCCN3[C@H](CO)[C@H](c4ccc(C#CC(C)C)cc4)[C@@H]3C2)c1 | -47.68
C[C@@H]1CN([C@H](C)CO)C(=O)c2cccc(NC(=O)NC3CCCCC3)c2O[C@@H]1CN(C)Cc1ccc(Oc2ccccc2)cc1 | -35.27
C[C@H](CO)N1C[C@H](C)[C@H](CN(C)S(=O)(=O)c2ccc(Cl)cc2)Oc2ccc(NC(=O)Nc3ccc4c(c3)OCO4)cc2CC1=O | -58.01
C[C@H]1CCCCO[C@@H](CN(C)S(=O)(=O)c2ccc(Cl)cc2)[C@@H](C)CN([C@@H](C)CO)C(=O)c2cc(NC(=O)CCC(F)(F)F)ccc2O1 | -55.11
C[C@@H]1CCCCO[C@@H](CN(C)Cc2ccc3c(c2)OCO3)[C@@H](C)CN([C@@H](C)CO)C(=O)c2cc(NC(=O)Nc3ccc(F)cc3)ccc2O1 | -47.05
C[C@H]1CN([C@@H](C)CO)C(=O)c2cc(C#Cc3ccc(F)cc3)cnc2O[C@H]1CN(C)C(=O)c1ccccc1F | -49.17
COc1cccc(NC(=O)N2CC(=O)N3[C@H](CO)[C@@H](c4ccc(C#CC5CCCC5)cc4)[C@@H]3C2)c1 | -44.36
O=C(C1CCCCC1)N1CC(=O)N2[C@H](CO)[C@@H](c3ccc(C#Cc4cccc(F)c4)cc3)[C@H]2C1 | -48.14
Cc1ccc(S(=O)(=O)Nc2ccc3c(c2)C(=O)N([C@H](C)CO)C[C@H](C)[C@@H](CN(C)Cc2ccc(Cl)c(Cl)c2)OCCCC[C@H](C)O3)cc1 | -53.27
COc1ccc(S(=O)(=O)N(C)C[C@H]2OCCCC[C@H](C)Oc3ccc(NS(=O)(=O)c4c(C)noc4C)cc3C(=O)N([C@@H](C)CO)C[C@H]2C)cc1 | -24.97
C[C@H]1CN([C@@H](C)CO)C(=O)c2c(c3ccccc3n2C)-c2ccccc2CO[C@@H]1CN(C)C(=O)c1cc(Cl)cc(Cl)c1 | -72.38
Cc1ccc(-c2ccc([C@H]3[C@@H](CO)N4CCCCN(C(=O)Nc5ccccc5)C[C@@H]34)cc2)cc1 | -36.43
C[C@H]1CN([C@@H](C)CO)C(=O)Cc2cc(N(C)C)ccc2O[C@@H]1CN(C)Cc1ccc(Cl)c(Cl)c1 | -34.44
C[C@@H]1CN([C@@H](C)CO)S(=O)(=O)c2ccc(C#Cc3ccccc3)cc2O[C@@H]1CN(C)C(=O)Nc1ccc2c(c1)OCO2 | -30.43
C[C@@H]1CCCCO[C@H](CN(C)S(=O)(=O)c2cccs2)[C@H](C)CN([C@H](C)CO)C(=O)c2cc(N(C)C)ccc2O1 | -47.59
O=C(Nc1ccc(F)cc1)N[C@H]1CC[C@H](CCNC(=O)c2cc(Cl)cc(Cl)c2)O[C@H]1CO | -54.02
Cc1ccc(S(=O)(=O)N(C)C[C@@H]2OCCCC[C@H](C)Oc3ccc(NC(=O)NC4CCCCC4)cc3C(=O)N([C@H](C)CO)C[C@@H]2C)cc1 | -34.4
COc1ccc(-c2ccc3c(c2)O[C@@H](CN(C)C(=O)c2ccccc2F)[C@@H](C)CN([C@H](C)CO)S3(=O)=O)cc1 | -32.11
CN(C)Cc1cn(CC[C@H]2CC[C@@H](NS(=O)(=O)c3ccc(-c4ccccc4)cc3)[C@@H](CO)O2)nn1 | -28.53
CCCN1C[C@H](C)[C@H](OC)CN(C)C(=O)c2cc(NC(=O)NC3CCCCC3)ccc2OC[C@@H]1C | -34.36
O=C1CN(S(=O)(=O)Cc2ccccc2)C[C@H]2[C@H](c3ccc(C#CCC4CCCC4)cc3)[C@@H](CO)N12 | -42.12
C[C@@H]1CCCCO[C@H](CN(C)Cc2ccc(Cl)c(Cl)c2)[C@@H](C)CN([C@@H](C)CO)C(=O)c2cc(NC(=O)Cc3ccccc3)ccc2O1 | -47.26
O=C(C[C@@H]1CC[C@@H](NC(=O)c2cccc(F)c2)[C@@H](CO)O1)NCc1ccc(Oc2ccccc2)cc1 | -31.49
O=C(NC1CCCCC1)N1CC(=O)N2[C@H](C1)[C@H](c1ccc(/C=C/c3ccccc3)cc1)[C@@H]2CO | -83.06
CC(C)NC(=O)Nc1ccc2c(c1)C(=O)N([C@H](C)CO)C[C@H](C)[C@H](CN(C)Cc1ccc(Cl)c(Cl)c1)OCCCC[C@@H](C)O2 | -23.09
COc1cccc(-c2cccc(-c3nc(C(=O)NCC(F)(F)F)cc4c3[C@@H](CCO)N([S@](=O)C(C)(C)C)C4)c2)c1 | -16.73
C[C@H](CO)N1C[C@H](C)[C@H](CN(C)Cc2ccccc2F)Oc2cc(C3=CCCCC3)ccc2S1(=O)=O | -61.57
C[C@H](CO)N1C[C@H](C)[C@H](CN(C)Cc2ccc(Cl)c(Cl)c2)OCc2ccccc2-c2ccccc2C1=O | -44.78
C[C@@H]1CN([C@H](C)CO)C(=O)c2cc(NC(=O)Cc3cn(C)c4ccccc34)ccc2O[C@H]1CN(C)CC1CCCCC1 | -47.73
C[C@H]1CCCCO[C@@H](CN(C)Cc2ccccc2)[C@@H](C)CN([C@@H](C)CO)C(=O)c2cc(NS(=O)(=O)c3cccs3)ccc2O1 | -27.23
CC(C)NC(=O)Nc1ccc2c(c1)C(=O)N([C@H](C)CO)C[C@H](C)[C@H](CN(C)Cc1ccc(Cl)c(Cl)c1)OCCCC[C@H](C)O2 | -63.35
CC(C)C#Cc1ccc2c(c1)O[C@@H](CN(C)Cc1cccnc1)[C@H](C)CN([C@@H](C)CO)S2(=O)=O | -57.57
C[C@@H]1CN([C@@H](C)CO)C(=O)c2cc(NC(=O)C3CCCCC3)ccc2O[C@@H](C)CCCCO[C@H]1CN(C)C(=O)C1CCCCC1 | -35.07
O=C(C[C@@H]1CC[C@@H]2[C@H](COC[C@@H](O)CN2C(=O)Nc2ccc(C(F)(F)F)cc2)O1)NCC1CCCCC1 | -75.26

The first 5 entries again:

With COc1ccc(S(=O)(=O)N(C)C[C@@H]2Oc3ccc(NC(=O)Nc4ccc(C(F)(F)F)cc4)cc3C(=O)N([C@H](C)CO)C[C@@H]2C)cc1 the assay gave activity change (Venus) -25.01%.
With CN(C)C(=O)c1cccc(-c2ccc(C3[C@@H]4CN(S(=O)(=O)c5ccc(F)cc5)C[C@H]3N4)cc2)c1 (some centres undefined) the assay gave activity change (Venus) -53.87%.
With Cc1cccc(-c2ccc(C3[C@@H]4CN(C(=O)Nc5ccc(F)cc5)C[C@H]3N4)cc2)c1 (some centres undefined) the assay gave activity change (Venus) -52.95%.
With CC(C)CC#Cc1ccc([C@@H]2[C@H]3CN(C(=O)NC4CCCC4)CCCCN3[C@H]2CO)cc1 the assay gave activity change (Venus) -48.89%.
With COc1cccc(S(=O)(=O)N2CCCCN3[C@H](CO)[C@H](c4ccc(C#CC(C)C)cc4)[C@@H]3C2)c1 the assay gave activity change (Venus) -47.68%.